Source: PMC9301189
These are yes or no findings as the source states them, for the method shown. Binding seen in cells or lysates may run through a third protein. Some entries that bind do so weakly or less than the wild type.

Key:
[1] = molecular target: hnRNPK (human (endogenous in HCT116 and FHC)) (UniProt P61978); experiment: co-IP; FHC (normal colonic epithelial) nucleoprotein extracts treated with RNase; precipitated with antibody to hnRNPK or IgG, protein-A/G Sepharose beads, 4°C; partners detected by western blot
[2] = molecular target: hnRNPK (human (endogenous in HCT116 and FHC)) (UniProt P61978); experiment: co-IP; HCT116 nucleoprotein extracts treated with RNase; precipitated with antibody to hnRNPK (or to hnRNPU) or IgG, protein-A/G Sepharose beads, 4°C; partners detected by western blot
[3] = molecular target: hnRNPU (human (endogenous in HCT116 and FHC)), Q00839; experiment: as above; settings: remark: other sources report otherwise

binding [1]	binding [2]	binding [3]	Binder
binds	binds		hnRNPR (protein, UniProt O43390 1-633) MANQVNGNAVQLKEEEEPMDTSSVTHTEHYKTLIEAGLPQKVAERLDEIFQTGLVAYVDLDERAIDALREFNEEGALSVLQQFKESDLSHVQNKSAFLCGVMKTYRQREKQGSKVQESTKGPDEAKIKALLERTGYTLDVTTGQRKYGGPPPDSVYSGVQPGIGTEVFVGKIPRDLYEDELVPLFEKAGPIWDLRLMMDPLSGQNRGYAFITFCGKEAAQEAVKLCDSYEIRPGKHLGVCISVANNRLFVGSIPKNKTKENILEEFSKVTEGLVDVILYHQPDDKKKNRGFCFLEYEDHKSAAQARRRLMSGKVKVWGNVVTVEWADPVEEPDPEVMAKVKVLFVRNLATTVTEEILEKSFSEFGKLERVKKLKDYAFVHFEDRGAAVKAMDEMNGKEIEGEEIEIVLAKPPDKKRKERQAARQASRSTAYEDYYYHPPPRMPPPIRGRGRGGGRGGYGYPPDYYGYEDYYDDYYGYDYHDYRGGYEDPYYGYDDGYAVRGRGGGRGGRGAPPPPRGRGAPPPRGRAGYSQRGAPLGPPRGSRGGRGGPAQQQRGRGSRGSRGNRGGNVGGKRKADGYNQPDSKRRQTNNQQNWGSQPIAQQPLQQGGDYSGNYGYNNDNQEFYQDTYGQQWK
		binds	hnRNPR, O43390 1-633 (protein) MANQVNGNAVQLKEEEEPMDTSSVTHTEHYKTLIEAGLPQKVAERLDEIFQTGLVAYVDLDERAIDALREFNEEGALSVLQQFKESDLSHVQNKSAFLCGVMKTYRQREKQGSKVQESTKGPDEAKIKALLERTGYTLDVTTGQRKYGGPPPDSVYSGVQPGIGTEVFVGKIPRDLYEDELVPLFEKAGPIWDLRLMMDPLSGQNRGYAFITFCGKEAAQEAVKLCDSYEIRPGKHLGVCISVANNRLFVGSIPKNKTKENILEEFSKVTEGLVDVILYHQPDDKKKNRGFCFLEYEDHKSAAQARRRLMSGKVKVWGNVVTVEWADPVEEPDPEVMAKVKVLFVRNLATTVTEEILEKSFSEFGKLERVKKLKDYAFVHFEDRGAAVKAMDEMNGKEIEGEEIEIVLAKPPDKKRKERQAARQASRSTAYEDYYYHPPPRMPPPIRGRGRGGGRGGYGYPPDYYGYEDYYDDYYGYDYHDYRGGYEDPYYGYDDGYAVRGRGGGRGGRGAPPPPRGRGAPPPRGRAGYSQRGAPLGPPRGSRGGRGGPAQQQRGRGSRGSRGNRGGNVGGKRKADGYNQPDSKRRQTNNQQNWGSQPIAQQPLQQGGDYSGNYGYNNDNQEFYQDTYGQQWK
